{
  "sequences": {"note": "Sequences of proteins named here, by UniProt entry; tags and fusion partners are left off. Residues count along the entry.", "UniProt Q8NEB9": "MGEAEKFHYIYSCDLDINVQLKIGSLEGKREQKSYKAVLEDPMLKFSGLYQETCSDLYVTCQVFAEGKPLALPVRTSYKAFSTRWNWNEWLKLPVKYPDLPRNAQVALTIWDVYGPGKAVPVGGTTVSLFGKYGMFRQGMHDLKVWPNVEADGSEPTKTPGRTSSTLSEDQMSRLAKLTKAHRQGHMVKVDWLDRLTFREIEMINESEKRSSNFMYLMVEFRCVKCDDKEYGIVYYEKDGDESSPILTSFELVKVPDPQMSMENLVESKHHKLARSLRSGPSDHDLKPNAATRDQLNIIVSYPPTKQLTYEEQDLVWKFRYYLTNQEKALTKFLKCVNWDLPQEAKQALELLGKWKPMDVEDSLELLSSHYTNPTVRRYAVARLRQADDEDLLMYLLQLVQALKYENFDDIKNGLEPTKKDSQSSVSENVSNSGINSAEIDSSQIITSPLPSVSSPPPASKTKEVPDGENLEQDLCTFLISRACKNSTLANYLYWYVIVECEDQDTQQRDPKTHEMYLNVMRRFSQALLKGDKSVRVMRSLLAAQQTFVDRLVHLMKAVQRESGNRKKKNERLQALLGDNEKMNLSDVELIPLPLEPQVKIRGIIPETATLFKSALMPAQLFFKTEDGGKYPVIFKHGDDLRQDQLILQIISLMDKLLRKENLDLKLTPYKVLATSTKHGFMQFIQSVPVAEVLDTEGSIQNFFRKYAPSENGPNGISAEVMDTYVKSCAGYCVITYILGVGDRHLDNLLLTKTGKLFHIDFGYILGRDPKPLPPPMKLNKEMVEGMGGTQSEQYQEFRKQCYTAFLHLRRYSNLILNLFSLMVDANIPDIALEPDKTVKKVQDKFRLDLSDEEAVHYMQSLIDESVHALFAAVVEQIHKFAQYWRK", "UniProt Q99IB8, residues 1977-2442": "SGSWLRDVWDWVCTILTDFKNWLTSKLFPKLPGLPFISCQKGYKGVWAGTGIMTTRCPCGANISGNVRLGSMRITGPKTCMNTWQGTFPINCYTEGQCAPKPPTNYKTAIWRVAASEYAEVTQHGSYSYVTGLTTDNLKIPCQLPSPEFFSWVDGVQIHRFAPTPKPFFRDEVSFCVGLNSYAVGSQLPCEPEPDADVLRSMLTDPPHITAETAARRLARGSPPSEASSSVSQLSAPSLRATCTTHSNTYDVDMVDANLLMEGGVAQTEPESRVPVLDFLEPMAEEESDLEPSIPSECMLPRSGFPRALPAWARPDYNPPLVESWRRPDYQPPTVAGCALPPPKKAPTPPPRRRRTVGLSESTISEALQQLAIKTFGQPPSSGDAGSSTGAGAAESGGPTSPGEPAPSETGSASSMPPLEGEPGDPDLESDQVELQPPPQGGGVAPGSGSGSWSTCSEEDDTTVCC", "UniProt Q99570": "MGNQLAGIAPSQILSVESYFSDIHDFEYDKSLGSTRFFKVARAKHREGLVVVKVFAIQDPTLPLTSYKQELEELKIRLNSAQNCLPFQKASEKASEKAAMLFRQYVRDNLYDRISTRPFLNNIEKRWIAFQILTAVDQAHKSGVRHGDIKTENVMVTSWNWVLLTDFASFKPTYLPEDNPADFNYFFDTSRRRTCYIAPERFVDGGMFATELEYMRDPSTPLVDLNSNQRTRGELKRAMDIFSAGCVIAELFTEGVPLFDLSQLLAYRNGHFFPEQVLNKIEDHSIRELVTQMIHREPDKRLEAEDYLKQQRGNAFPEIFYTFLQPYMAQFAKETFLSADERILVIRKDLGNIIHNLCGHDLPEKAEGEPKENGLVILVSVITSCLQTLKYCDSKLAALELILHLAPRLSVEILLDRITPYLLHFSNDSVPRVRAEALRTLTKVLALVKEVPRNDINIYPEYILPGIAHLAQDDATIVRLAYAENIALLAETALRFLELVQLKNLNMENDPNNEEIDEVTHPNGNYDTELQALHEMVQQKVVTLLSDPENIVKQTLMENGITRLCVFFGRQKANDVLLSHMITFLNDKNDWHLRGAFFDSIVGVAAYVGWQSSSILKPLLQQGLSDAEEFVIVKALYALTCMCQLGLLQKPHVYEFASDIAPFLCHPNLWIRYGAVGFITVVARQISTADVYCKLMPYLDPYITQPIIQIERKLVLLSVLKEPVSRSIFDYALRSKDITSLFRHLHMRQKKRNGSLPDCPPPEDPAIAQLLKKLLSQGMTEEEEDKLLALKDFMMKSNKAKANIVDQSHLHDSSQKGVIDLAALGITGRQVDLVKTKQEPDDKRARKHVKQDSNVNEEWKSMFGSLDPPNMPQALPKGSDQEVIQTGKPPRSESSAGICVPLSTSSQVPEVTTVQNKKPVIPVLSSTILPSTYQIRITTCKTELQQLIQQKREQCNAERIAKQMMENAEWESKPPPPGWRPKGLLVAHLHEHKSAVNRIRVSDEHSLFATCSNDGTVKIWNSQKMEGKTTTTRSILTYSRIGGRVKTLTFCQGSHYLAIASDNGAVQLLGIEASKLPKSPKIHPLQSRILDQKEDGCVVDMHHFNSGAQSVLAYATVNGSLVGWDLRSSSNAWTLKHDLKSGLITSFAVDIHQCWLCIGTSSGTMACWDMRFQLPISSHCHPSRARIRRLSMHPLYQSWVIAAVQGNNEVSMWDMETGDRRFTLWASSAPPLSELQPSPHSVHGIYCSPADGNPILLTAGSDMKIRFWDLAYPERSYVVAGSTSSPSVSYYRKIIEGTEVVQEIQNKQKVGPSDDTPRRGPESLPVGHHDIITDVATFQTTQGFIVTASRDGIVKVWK", "UniProt Q14457": "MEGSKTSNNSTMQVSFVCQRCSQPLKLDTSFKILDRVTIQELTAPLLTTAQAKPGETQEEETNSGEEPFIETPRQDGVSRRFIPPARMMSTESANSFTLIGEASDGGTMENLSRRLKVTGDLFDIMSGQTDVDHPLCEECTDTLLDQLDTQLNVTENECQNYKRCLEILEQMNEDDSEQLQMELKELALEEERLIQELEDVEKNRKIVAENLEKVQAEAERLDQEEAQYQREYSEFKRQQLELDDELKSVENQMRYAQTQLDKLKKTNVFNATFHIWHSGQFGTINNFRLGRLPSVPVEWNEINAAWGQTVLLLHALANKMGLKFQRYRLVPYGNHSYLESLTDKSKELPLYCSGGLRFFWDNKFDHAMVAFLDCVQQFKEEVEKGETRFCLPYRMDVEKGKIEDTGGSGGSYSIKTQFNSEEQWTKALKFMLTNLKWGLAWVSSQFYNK"},
  "source": "paper PMC6762199",
  "key": {"Flag-Vps34 (human) [1]": {"target": "Flag-Vps34 (human) (UniProt Q8NEB9)", "assay": "co-IP; Huh7 cells co-transfected, lysed 48 h later in IP buffer (50 mM Tris HCl pH 7.5, 150 mM NaCl, 1% NP40); Flag-resin, Western blotting; in some panels cells treated with control or RACK1 siRNA one day before"}, "[2]": {"target": "NS5A-WT-Flag (hepatitis C virus genotype 2a (JFH1)) (UniProt Q99IB8)", "assay": "co-IP; HEK293FT cells transfected, lysed 48 h later in IP buffer (50 mM Tris HCl pH 7.5, 150 mM NaCl, 1% NP40); Flag-resin, Western blotting"}, "Flag-Vps34 (human) [3]": {"target": "Flag-Vps34 (human) (UniProt Q8NEB9)", "assay": "co-IP; HEK293FT cells transfected, lysed 48 h later in IP buffer (50 mM Tris HCl pH 7.5, 150 mM NaCl, 1% NP40); Flag-resin, Western blotting"}, "[4]": {"target": "Flag-tagged Vps15 (human) (UniProt Q99570)", "assay": "co-IP; HEK293FT cells transfected, lysed 48 h later in IP buffer (50 mM Tris HCl pH 7.5, 150 mM NaCl, 1% NP40); Flag-resin, Western blotting"}, "Flag-Beclin1 (human)": {"target": "Flag-Beclin1 (human) (UniProt Q14457)", "assay": "co-IP; Huh7 cells co-transfected, lysed 48 h later in IP buffer (50 mM Tris HCl pH 7.5, 150 mM NaCl, 1% NP40); Flag-resin, Western blotting; in some panels cells treated with control or RACK1 siRNA one day before"}},
  "note": "No constants are given. Whether binding was seen depends on the method and setting. In cells and extracts the contact can be indirect. Some entries that bind do so weakly or less than the wild type.",
  "data": [
    {"substance": "NS5A-HA (from UniProt Q99IB8 1977-2442)", "values": [
      {"measurement": "binding", "setting": "Flag-Vps34 (human) [1]", "result": "binds"}
    ]},
    {"substance": "HA-tagged Beclin (from UniProt Q14457 1-450)", "values": [
      {"measurement": "binding", "setting": "[2]", "result": "binds"}
    ]},
    {"substance": "GFP-tagged NS5A-WT (from UniProt Q99IB8 1977-2442)", "values": [
      {"measurement": "binding", "setting": "Flag-Vps34 (human) [3]", "result": "binds"},
      {"measurement": "binding", "setting": "[4]", "result": "no binding"},
      {"measurement": "binding", "setting": "Flag-Beclin1 (human)", "result": "binds"}
    ]}
  ]
}
